PubChem BioAssay AID686938, Drosophila RNAi Screening Center | 2013
The deposit covers about 23,000 reagents; this is an unselected part of those that have a named target and a result. Of all reagents, 75 (0.33%) are marked active. 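Raw plate signals without normalisation; calls rest on plate z-scores that were not deposited; ratio present for only 364 wells.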 The numbers tell different reagents against one gene apart. A plus sign joins genes that one reagent is predicted to hit. Reagent sequences are not shown. The record does not give: the dose of the treatment.

Aim: 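Knock-downs reducing store-operated calcium influx in Drosophila cells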 (primary screen)
Cell system: Drosophila S2R+ cells
Knock-down reagent: long dsRNA against Drosophila genes, about 0.25 µg dsRNA per well, roughly 10,000 cells
Timing: 5 days of knock-down before the calcium assay
Conditions: thapsigargin (SERCA pump blocker) to empty calcium stores; entry signal taken 4 min after adding it
Detection: 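Per-well fluo-4 fluorescence in two replicates, unnormalised, measured in resting cells and 4 min after store depletion by the SERCA blocker thapsigargin; ratio of the two present in few wells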
Direction: calcium entry signal: higher = stronger calcium signal after store depletion; entry to resting ratio: higher = more calcium entry relative to resting level; resting calcium signal: higher = higher resting calcium signal
Rule for the call: 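Hit if the duplicate-averaged plate z-score for entry over resting signal is under −3; wells with weak total dye signal (Fmax z < −2) or more than 5 off-targets removed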
Meaning of the calls: active = strongly reduced calcium entry; inactive = no strong reduction

gene | reagent no. | calcium entry signal, replicate 1 (fluorescence units) | calcium entry signal, replicate 2 (fluorescence units) | entry to resting ratio | resting calcium signal, replicate 1 (fluorescence units) | resting calcium signal, replicate 2 (fluorescence units) | outcome
ana3 | 1 | 2.77e7 | 4.37e7 | – | 1.33e7 | 1.79e7 | inactive
5-HT1A | 1 | 4.33e7 | 3.76e7 | – | 1.90e7 | 1.80e7 | inactive
CG2765 | 1 | 2.25e7 | – | – | 1.21e7 | – | inactive
CG12985 | 1 | 3.01e7 | 2.87e7 | – | 1.58e7 | 1.44e7 | inactive
CG14298 | 1 | 2.98e7 | 3.56e7 | – | 3.50e7 | 1.41e7 | inactive
Ant2 | 1 | 4.81e7 | 4.04e7 | – | 2.20e7 | 1.93e7 | inactive
CG33230 | 1 | 3.27e7 | 2.58e7 | – | 1.48e7 | 1.28e7 | inactive
CG32485 | 1 | 2.42e7 | 2.45e7 | – | 1.29e7 | 1.07e7 | inactive
CG10479 | 1 | 4.19e7 | 2.84e7 | – | 2.89e7 | 1.28e7 | inactive
CheB98a | 1 | 3.80e7 | 5.59e7 | – | 1.96e7 | 2.30e7 | inactive
Cp36 | 1 | 2.95e7 | 4.06e7 | – | 1.66e7 | 1.95e7 | inactive
CG32984 | 1 | 2.30e7 | 3.06e7 | – | 1.27e7 | 1.36e7 | inactive
orb | 1 | 2.22e7 | 2.16e7 | – | 1.39e7 | 1.26e7 | inactive
orb | 2 | 4.38e7 | 3.06e7 | – | 2.39e7 | 1.34e7 | inactive
Sfmbt | 1 | 4.64e7 | – | – | 2.32e7 | – | inactive
CG10919 | 1 | 4.19e7 | 2.69e7 | – | 2.09e7 | 1.41e7 | inactive
CG42493 | 1 | 3.56e7 | 3.96e7 | – | 2.22e7 | 1.64e7 | inactive
CG8138 | 1 | 2.83e7 | 4.90e7 | – | 1.44e7 | 6.79e7 | inactive
Obp57e | 1 | 2.27e7 | 4.55e7 | – | 1.16e7 | 2.11e7 | inactive
Kdm4A | 1 | 3.25e7 | 2.64e7 | – | 1.43e7 | 1.22e7 | inactive
CG9849 | 1 | 4.40e7 | 4.39e7 | – | 2.16e7 | 1.98e7 | inactive
mbt | 1 | 2.91e7 | 2.93e7 | – | 1.64e7 | 1.39e7 | inactive
mbt | 2 | 5.02e7 | 3.28e7 | – | 2.22e7 | 1.46e7 | inactive
Ric | 1 | 2.84e7 | 3.80e7 | – | 1.29e7 | 1.72e7 | inactive
CAH16 | 1 | 3.24e7 | 6.25e7 | – | 1.78e7 | 2.36e7 | inactive
Or85c | 1 | 4.75e7 | 3.95e7 | – | 2.20e7 | 1.90e7 | inactive
retn | 1 | 3.73e7 | 4.91e7 | – | 1.93e7 | 2.07e7 | inactive
CG5033 | 1 | 2.52e7 | 2.52e7 | – | 1.24e7 | 1.35e7 | inactive
Pnn | 1 | 4.33e7 | 3.76e7 | – | 2.11e7 | 2.00e7 | inactive
Grip128 | 1 | 2.34e7 | 2.87e7 | – | 1.15e7 | 1.33e7 | inactive
Sirup | 1 | 2.74e7 | 4.02e7 | – | 1.31e7 | 1.65e7 | inactive
Capr | 1 | 3.50e7 | 6.16e7 | – | 1.90e7 | 2.35e7 | inactive
CG3511 | 1 | 3.65e7 | – | – | 1.80e7 | – | inactive
EMC2B + EMC2A | 1 | 3.53e7 | 4.58e7 | – | 1.58e7 | 5.54e7 | inactive
Eph | 1 | 5.08e7 | 5.45e7 | 2.1 | 2.42e7 | 2.32e7 | inactive
Or65c | 1 | 2.62e7 | 2.63e7 | – | 1.48e7 | 1.14e7 | inactive
Rift | 1 | 3.69e7 | 4.90e7 | 2 | 1.80e7 | 2.03e7 | inactive
CG14362 | 1 | 3.31e7 | 4.67e7 | – | 1.63e7 | 7.77e7 | inactive
ms(2)35Ci | 1 | 2.77e7 | 3.23e7 | – | 1.47e7 | 1.45e7 | inactive
Mct1 | 1 | 3.86e7 | 6.68e7 | 1.9 | 2.04e7 | 2.50e7 | inactive
glu | 1 | 3.72e7 | – | – | 2.36e7 | – | inactive
CG14960 | 1 | 2.39e7 | 3.06e7 | – | 1.25e7 | 1.42e7 | inactive
Gorab | 1 | 3.67e7 | 3.43e7 | – | 1.61e7 | 1.51e7 | inactive
CG12713 | 1 | 4.24e7 | 4.86e7 | – | 1.90e7 | 3.36e7 | inactive
frac | 1 | 4.15e7 | 3.00e7 | – | 2.81e7 | 1.45e7 | inactive
CG34299 | 1 | 3.67e7 | 4.34e7 | – | 1.58e7 | 2.18e7 | inactive
eIF4H1 | 1 | 2.12e7 | 2.35e7 | – | 1.09e7 | 1.06e7 | inactive
Obp47a | 1 | 3.47e7 | 3.42e7 | – | 1.74e7 | 1.59e7 | inactive
Prosbeta6 | 1 | 1.68e7 | 1.34e7 | – | 1.48e7 | 8.74e6 | inactive
CG11658 | 1 | 2.47e7 | 3.82e7 | – | 1.26e7 | 1.63e7 | inactive
l(2)10685 | 1 | 4.58e7 | – | – | 2.25e7 | – | inactive
CG4483 | 1 | 4.62e7 | 3.61e7 | – | 2.26e7 | 1.72e7 | inactive
Start1 | 1 | 4.58e7 | – | – | 2.24e7 | – | inactive
Polr3C | 1 | 2.92e7 | 3.97e7 | – | 1.24e7 | 1.78e7 | inactive
Cyp9f2 | 1 | 3.39e7 | 4.59e7 | – | 1.68e7 | 1.97e7 | inactive
CG12111 | 1 | 3.34e7 | 3.79e7 | – | 1.72e7 | 1.92e7 | inactive
CG12239 | 1 | 2.59e7 | 2.33e7 | – | 1.30e7 | 1.29e7 | inactive
CG4853 | 1 | 3.13e7 | 2.53e7 | – | 1.46e7 | 1.28e7 | inactive
